These results are taken from PubChem BioAssay AID1508600 (Functional Genomics Laboratory (NCATS/FGL), 2020).

The whole screen tested about 53,000 sequences, of which about 3,700 (7%) were called active.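 The calls were made as follows: active = gene knockdowns whose robust z-score for IL-1 alpha signal is at least 2 or at most -2, so actives lie on both sides; inactive = the rest.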 This is one part of the list.

The assay can be described thus: Components of the Cytosolic LPS Sensing Pathway: Gene Identification via Genome-wide siRNA Screen. Conditions: RAW264.7 macrophages, IL-1a HTRF, actives lie on both sides, screened at 100 nM (by protocol), cells primed 5 h with Pam3CSK4 first. An excerpt: Non-canonical inflammasome activation by cytosolic LPS is a critical component of the host response to Gram-negative bacterial infection, however we lack a comprehensive understanding of the cellular processes that control this pathway. Here we describe a genome-wide siRNA screen to identify genes regulating the mouse macrophage IL-1 alpha response to cytosolic LPS.
RAW264.7 cells were maintained in complete DMEM media, comprising DMEM with 4.5 g/L glucose, 10% FBS (Gemini Bio-Products, West Sacramento, CA), 2 mM Glutamine (Lonza) and 20 mM HEPES (Lonza), hereafter complete DMEM.
The RNAi screen was conducted in 384-well format using the Ambion Silencer Mouse Genome siRNA Library (#4391425), which consists of three unique, nonoverlapping, nonpooled siRNAs for each of 17,000 gene targets. siRNA reagents ([…]) were stamped into 384-well white flat-bottom microplates (Corning, 3570) using a Velocity11 VPrep liquid handling system (Agilent) integrated into a BioCel robotic platform (Agilent) in columns 1-22, leaving columns 23-24 empty for negative (Ambion, Negative control #1) and positive (mouse Casp4) controls, respectively. The median value of each plate's negative control column was used to normalize sample wells, and the positive control was used to assess transfection efficiency and assay performance.
Lipofectamine RNAiMAX Transfection Reagent ([…]; Invitrogen) was added in […] serum-free, antibiotic-free media to plate wells using a Thermo Scientific Matrix WellMate and Microplate Stacker. Plates were incubated for 45 min at room temperature to allow for the sufficient formation of siRNA-lipid complexes. Cells were seeded at a density of 1x10^4 cells per well in 20 microL media containing 20% (vol/vol) FBS without antibiotics. The final concentration of siRNA in each well was 100 nM. Cells were cultured for 48h at 37 degrees C in 5% CO2 before addition of […] of TLR ligand Pam3CSK4 for 5 hours. The medium was then removed, replaced with […] growth media and cell were transfected with […] of LipidA and TransIT-TKO (Mirus) for 24 hour. At the end of the LipidA treatment, […] of supernatant was transferred to a 384 Greiner Bio-one non-binding low volume plate and […] of IL-1a HTRF reagent (Cisbio, 62MIL1APEH) was added and incubated at room temperature overnight. The plates were read on an EnVision plate reader (PerkinElmer). Cell viability was measured by adding 20ul Cell Titer Glo to the original plate and running a luminescence read on the EnVision. The quantified IL-1a signal for each siRNA gene-targeted well was divided by the median of the negative control wells and multiplied by 100 to achieve a negative control normalized value for each well/siRNA. This normalized value was then used to generate a robust z-score by first taking the log of each value and then by subtracting the median and dividing by the […].
In general terms: In TR-FRET formats the signal depends on donor and acceptor labels being close together.
Consider GUCCUUCUUCUUUGGGUUGTT against Olfr1356, for which the z-score was inactive: 1.22.
As for GCAAAUGGAUGGUUCUUGGTT against Tril, the figure is inactive: 0.0347; as for CCCUGGCCAAACAUAGUGGTT against Efcab12, inactive: 0.278; as for GGAAGUUGGAAAAACAUUGTT against Zfp947, inactive: 1.02.
In the case of GGCUUCAAGACUUGUGUGATT against Rdh1, the z-score is inactive: -1.07.
To GGCUAAAGAAUAAAGAUCCTT against Cadm2 belongs inactive: 1.66.
To GGAAGACCAAUAGUACUGCTT against Il1rn belongs inactive: -0.0282; to GGCUUUGAGAGUGGUGUAUTT against Sgsh, inactive: -1.53.
To CCUCACCGAGUGGUUUAGCTT against Nlrx1 belongs inactive: -0.161; to GGAGGAGUUCCAGAUCCACTT against Pald1, inactive: -0.356; to GGACAUCAUUGAUGGAUUUTT against Auts2, inactive: 1.13.
On to GGUUCAAGGCAUUUUCUACTT against Olfr715, for which the z-score was inactive: 1.22.
As for GGAAUUGAGGUGAUGGAUATT against Sfxn4, the figure is inactive: -0.144.
To CUUAAAGUGAGAUGGUUUCTT against H2bc21 belongs inactive: 0.43; to GGACUGAAGUCCUUGACACTT against Lgi3, inactive: -1.46; to GCACUUCGAUGAGUUGUGCTT against Def6, inactive: 0.719.
As for CCACGUGUCUUAGAAUUAATT against Gas1, the figure is inactive: 1.67.
On to GGCCAUUGCCAUUGUGUGUTT against Stambpl1, for which the z-score is inactive: 1.14.
Take CGUGUCCUGACCUUUCAACTT against Il22ra1: the z-score was inactive: 0.905.
Turning to CCUCACAGGCCUACGACAATT against Csrp2, the z-score is inactive: -0.284.
As for CCGUUGACAGAACAGUCCUTT against Vegfa, the figure is inactive: -0.376.
As for GGAGUGACUCCAAAUUUACTT against Brcc3, the figure is inactive: -0.113; as for GCAAUAGACAUUCAUCAGATT against Serpinb9c, inactive: -0.364.
As for CCUUACCAAUGUUCAUUUATT against Skint7, the figure is inactive: -0.32; as for GGUAAUGUCUUUGUACUAATT against Steap4, inactive: -0.0471; as for GGUGAUCGUGGUGUGGAACTT against Extl2, inactive: 0.941.
As for CCAUUCCUUUAGAUUCGUUTT against Med26, the z-score is inactive: -0.564.
To GGUCUUAAAAGAGAAGCCATT against Lonp2 belongs inactive: -1.15; to GGCCUAAAGGCUUUGAUGATT against Nars, inactive: -1.01; to GGACAGACCACACUUCAUGTT against Foxp3, inactive: -0.494.
As for “GCGCUUCCAAUAACAAAAATT against 1700123L14Rik”, the figure is active: -2.19; as for GGAGAUAUAAAGAAGCAUUTT against Fam214a, inactive: 0.95; as for GGGCAAACCUUCUAAACUATT against Ttpa, inactive: 0.505.
As for GGUGGUUACAACCGAAGCATT against Fus, the figure is inactive: -0.994; as for GGAGAAGUUGAUAGCUAAATT against Pax6, inactive: 0.941; as for GGAAGCUCACUAGUAACUUTT against Itgb5, inactive: -0.859.
GGAUAAGGCUUUAUGAGAGTT against Cryga: the z-score is inactive: -0.0719.
To GGCAACGAUUGUGACUUAUTT against Odr4 belongs inactive: -0.312; to GGCCAUCAAGGUCUUUUCUTT against Washc1, inactive: -1.34; to GGCCUUCAAAGCAAUAGGATT against Dnajc18, inactive: -0.718.
As for GCCAUACUCUUUCUAAAAUTT against Tmem127, the figure is inactive: 1.63.
As to GGAGAUUAUAGGGAAGCUCTT against Il3, the z-score was inactive: 0.82.
To GGAUCCAAGUGAACGACCUTT against Ppp1r9b belongs inactive: -0.507.
As for CCUGGAAUACAAGACAUGATT against Ecm2, the figure is inactive: 0.247.
As for GCCAUUGCUAUCCAUCGUGTT against Ddx39b, the z-score is active: -2.57.
To CCGACAGCUCUAAAGGAACTT against Celf6 belongs inactive: 0.838; to GGAGAAAGCUGCUCAUGAATT against Caml, inactive: -0.477; to CCAUCUCUAGAGCAAGACUTT against Cs, inactive: 0.892.
As for GGUUGUGACAAUGUGGUACTT against Coro1b, the figure is inactive: 1.15.
Consider GCAAAUGGAUAACUUGUACTT against Epas1, for which the z-score is inactive: -0.865.
As for GGAAGAGCACCUCCAGUCATT against Rnf114, the figure is inactive: -1.26.
As for CCUCUGCUUUGUUACUUCCTT against Olfr1431, the z-score was inactive: -0.287.
As for GGCAUGAGUUCUACCUUCUTT against Tssc4, the figure is inactive: -0.301; as for GGACAGAAUUAAGGAUGUCTT against Fdxr, inactive: -0.337; as for CCACAAAUGAGCGCAGAGUTT against Erg, inactive: -0.616.
To GGCCUUGGAACUUAAACGGTT against Dhdds belongs inactive: -0.0243; to CCCAUUAAUUCGACAACUATT against Ppp1r1c, inactive: 1.04.
As for GCCAAUGGAGGGUUGGAUUTT against Med16, the figure is inactive: 0.0771; as for GGACAUUUCUUCUGUUACCTT against Ncmap, inactive: 0.816.
GCUAAUUAAGAAGAGAGCATT against Gclc: the z-score was inactive: -0.566.
To GGUUCCAGAUGUGAUCAGUTT against Tbc1d4 belongs inactive: 0.305; to “GGGAUUAAACUGCUCUGUGTT against 1700019N19Rik”, inactive: -0.383; to GGACCUGUUUUGGAAAUAUTT against Jchain, inactive: -0.613.
To GCAGAAAAGGUCUACGUGCTT against Azgp1 belongs inactive: 1.8; to GCCGUCCUUACACCUUUAUTT against Olfr599, inactive: -0.601; to GGGUUGAUAGAAGUUUUUATT against Cpeb1, inactive: 0.612.
As to GCAGAAAUUAAGGCCUUAATT against Bicd1, the z-score was inactive: -0.248.
To GGAGAAGAAAGGUUACAUCTT against Calml4 belongs inactive: -0.647.
In the case of GGAUCUUCAAUCUUUUUCATT against Skint11, the z-score is inactive: -0.37.
To GGAUCAACCACAUCAGCUCTT against Hrh2 belongs inactive: -0.838; to GCCAAUGAAUACUUGCCCATT against Farp2, inactive: -1.3; to GGAGGGUAUUAUUGACAUATT against Gnat1, inactive: 0.651.
As for GGGACUCGGAUAUUCGUGUTT against Adcy7, the figure is inactive: 0.888; as for GGAUGGAAGAAGAAAGAAUTT against Enox2, inactive: -1.94.
As for GGGUUACUGCUUUGAUAGUTT against Epcam, the z-score is inactive: 0.0555.
Take CCGAAACCAGCGUAUCCUGTT against Cpn1: the z-score is inactive: -1.08.
To GGAGGAUGCAAUUUUUAACTT against Sult1e1 belongs inactive: 0.771.
GGUCAAAGUGUAACUUGUUTT against Rwdd4a: the z-score was inactive: -0.0956.
To GGUUUUAGGAGAACUGUCATT against Twnk belongs inactive: 0.0265.
As for GCAAGGGUUUGGUAGUAGGTT against Nup188, the figure is inactive: 0.324; as for GGCUUAGUGCCUCUAAAAGTT against Aqp6, inactive: 0.749.
As for GGCUCAAAGGCUACAGCAATT against Ctsw, the figure is inactive: -1.8.
For GGAUUUUUUGAUUACUGUGTT against Oca2, the z-score was inactive: -0.359.
To GGUCUUCAUCUGUCCAACUTT against Tmlhe belongs active: -2.09; to GGGUCUCAAAAGAGCAGGUTT against Neurl1a, inactive: 1.67; to GGACCUGUGGUUGUUGUUCTT against Tll2, inactive: 0.294.
As for GGUGGUAAAGACGAUUGGCTT against Ezr, the figure is inactive: -0.209; as for GGCUGACUCGCUUUCACCATT against Efna2, inactive: 0.522; as for CCCUCAUGUUUCAUUUGUGTT against Glrx3, inactive: -0.454.
To CCAAAUACGACUUACGAAATT against Ncam2 belongs inactive: 0.246.
With GCUAAAUCCUUGACACCCATT against Fam161a, the z-score was inactive: -1.42.
Turning to GCAAAGUUAUUUCGCUUGGTT against Mgst2, the z-score is inactive: 0.61.
GGCAUGGACAAAGAGAAGGTT against Nol6: the z-score is inactive: -1.17.
As for GGCAGUAGUUAGCAAAUAUTT against Ska1, the z-score was inactive: -1.24.
As for GCCAAUCAAAUCAACCAUATT against Ints6, the figure is inactive: -1.21; as for GGUGAGACAGAUAAAGUUCTT against Olfr1124, inactive: 1.15.
For the sequence GGAGUUUGUGGAUGACUUUTT against Clip1, the z-score is inactive: 0.767.
As for GGUUUUUACUUUUUGGUCCTT against Pllp, the figure is inactive: -0.07.
GGUUUUUUACACAACAUGCTT against Lgalsl: the z-score was inactive: 0.952.
To GUUUCGAUUAUGUUAAAGCTT against Rasl10a belongs inactive: 0.683; to GGCUAAAAAAGUCUCAGCCTT against Pbx2, inactive: -0.536; to GCUUGUGCGGGUGAUAGACTT against Pars2, inactive: 1.97.
As for GGAGAUUGAGAAGUUUCUATT against Gpn3, the figure is inactive: 1.87.
As for GGAGGACGAGAACAGUAAGTT against Sap30bp, the figure is inactive: 0.0387; as for GCUAUAGUUCUCUUUAGUCTT against Nr2c2, inactive: 0.837; as for GGCAAAACAUGCUUGGACCTT against Zfp687, active: 2.31.
As to GGACAUGUAUAAGAAGAUGTT against Itpka, the z-score was inactive: -0.25.
